The values below come from publication PMC9355967.

The chains behind the UniProt entries cited, without tags or fusion partners. Where a name states a change or a piece, a line headed by the entry shows the natural chain unless it says otherwise. Residues count along the entry.
UniProt Q14160, residues 718-820: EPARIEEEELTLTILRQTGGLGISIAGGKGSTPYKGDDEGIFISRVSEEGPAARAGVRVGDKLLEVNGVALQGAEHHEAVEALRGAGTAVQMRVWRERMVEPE
UniProt Q9QZQ1: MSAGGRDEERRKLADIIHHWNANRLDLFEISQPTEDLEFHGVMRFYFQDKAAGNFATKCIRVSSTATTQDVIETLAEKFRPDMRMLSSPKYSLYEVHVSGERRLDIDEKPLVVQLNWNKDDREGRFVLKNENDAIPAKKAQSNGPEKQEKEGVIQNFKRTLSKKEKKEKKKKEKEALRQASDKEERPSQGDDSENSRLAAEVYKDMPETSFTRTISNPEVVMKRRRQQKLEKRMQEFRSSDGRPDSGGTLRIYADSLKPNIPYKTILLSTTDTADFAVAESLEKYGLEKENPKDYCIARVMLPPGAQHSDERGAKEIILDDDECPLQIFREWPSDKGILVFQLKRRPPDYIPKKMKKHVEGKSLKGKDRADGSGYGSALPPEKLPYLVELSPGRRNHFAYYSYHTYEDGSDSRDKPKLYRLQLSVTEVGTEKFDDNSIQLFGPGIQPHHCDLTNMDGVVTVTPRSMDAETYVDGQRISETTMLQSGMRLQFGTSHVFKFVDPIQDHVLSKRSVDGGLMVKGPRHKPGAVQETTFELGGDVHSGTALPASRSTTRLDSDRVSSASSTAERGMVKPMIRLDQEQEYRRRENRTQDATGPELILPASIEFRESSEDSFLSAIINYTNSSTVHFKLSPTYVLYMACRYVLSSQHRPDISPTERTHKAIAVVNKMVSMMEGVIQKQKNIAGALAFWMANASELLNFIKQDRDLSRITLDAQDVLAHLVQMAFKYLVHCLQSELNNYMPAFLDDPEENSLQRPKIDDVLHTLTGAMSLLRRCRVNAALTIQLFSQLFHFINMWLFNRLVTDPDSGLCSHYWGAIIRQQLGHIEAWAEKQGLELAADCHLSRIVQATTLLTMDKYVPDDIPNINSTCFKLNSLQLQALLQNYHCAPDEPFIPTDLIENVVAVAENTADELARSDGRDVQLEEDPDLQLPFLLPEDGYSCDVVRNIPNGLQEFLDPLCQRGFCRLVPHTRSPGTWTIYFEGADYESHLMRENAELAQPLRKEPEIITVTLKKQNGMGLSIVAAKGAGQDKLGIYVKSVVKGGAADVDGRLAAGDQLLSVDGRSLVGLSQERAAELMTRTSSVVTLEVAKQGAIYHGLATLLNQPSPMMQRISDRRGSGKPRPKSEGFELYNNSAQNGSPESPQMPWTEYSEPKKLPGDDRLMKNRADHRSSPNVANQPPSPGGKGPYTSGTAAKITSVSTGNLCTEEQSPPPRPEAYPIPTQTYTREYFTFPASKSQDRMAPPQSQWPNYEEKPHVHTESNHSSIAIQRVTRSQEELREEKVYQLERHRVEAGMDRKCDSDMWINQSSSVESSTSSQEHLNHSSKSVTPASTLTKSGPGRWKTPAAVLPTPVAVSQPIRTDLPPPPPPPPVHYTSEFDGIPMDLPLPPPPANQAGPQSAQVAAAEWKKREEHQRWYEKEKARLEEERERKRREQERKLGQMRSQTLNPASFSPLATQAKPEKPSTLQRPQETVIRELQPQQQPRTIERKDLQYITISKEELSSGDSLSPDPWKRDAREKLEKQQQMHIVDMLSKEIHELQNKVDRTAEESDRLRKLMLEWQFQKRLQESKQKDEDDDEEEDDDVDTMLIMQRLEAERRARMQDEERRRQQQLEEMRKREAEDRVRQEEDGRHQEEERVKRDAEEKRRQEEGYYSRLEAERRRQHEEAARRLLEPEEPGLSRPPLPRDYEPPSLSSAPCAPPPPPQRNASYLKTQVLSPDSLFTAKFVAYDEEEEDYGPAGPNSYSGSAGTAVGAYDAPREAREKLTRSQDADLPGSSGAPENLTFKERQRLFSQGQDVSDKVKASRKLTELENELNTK
GST-AFDN RA1/2 (dual RA domains, residues 6-370): residues 6-370 of Q9QZQ1
GST-AFDN core FHA domain (371-531): residues 371-531 of Q9QZQ1
GST-AFDN core FHA domain as solved in the NMR structure (381-501): residues 381-501 of Q9QZQ1
GST-AFDN C-terminal extension of the FHA domain (531-580): residues 531-580 of Q9QZQ1
UniProt P61224: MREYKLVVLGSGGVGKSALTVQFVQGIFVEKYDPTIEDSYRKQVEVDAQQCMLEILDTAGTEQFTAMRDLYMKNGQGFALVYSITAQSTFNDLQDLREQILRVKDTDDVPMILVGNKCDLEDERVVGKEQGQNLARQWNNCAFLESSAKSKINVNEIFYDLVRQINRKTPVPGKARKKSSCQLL

The target of one test is GST-SCRIB PDZ1 (human) (UniProt Q14160). Briefly: pull-down; GST fusions purified from E. coli on glutathione beads mixed with lysates of mammalian cells expressing (or holding endogenous) SCRIB or AFDN; TX100 buffer with 10% glycerol and 1% NP-40; only the target purified.
Test [1] concerns the target GST-AFDN RA1/2 (dual RA domains, residues 6-370) (mouse) (UniProt Q9QZQ1). As to the kind of experiment: pull-down; GST-tagged RA/RBD domains purified from bacteria on glutathione beads mixed with lysates of cells expressing GTPases; beads washed 5X; anti-GFP blot; only the target purified.
For test [2], the target named is GST-AFDN C-terminal extension of the FHA domain (531-580) (mouse) (UniProt Q9QZQ1). As to the kind of experiment: pull-down; in vitro mixing: purified SCRIB PDZ1 added at 50 μM to glutathione beads bound to GST-fused AFDN FHA fragments; both purified.
Test [3] has as its target GST-AFDN core FHA domain (371-531) (mouse) (UniProt Q9QZQ1). The test is described as above.
Test [4] concerns the target GST-AFDN core FHA domain as solved in the NMR structure (381-501) (mouse) (UniProt Q9QZQ1). The description is as above.

These are yes or no findings as the source states them, for the method shown. For some assays here: In cells and extracts the contact can be indirect. Some entries that bind do so weakly or less than the wild type.

As for “AFDN iso1, expressed in cells for GST mixing (tag not told) (from UniProt Q9QZQ1 1-1820)”, the binding result in the test with GST-SCRIB PDZ1 (human) is given as “binds”.

Turning to “EGFP-RAP1B-G12V (from UniProt P61224 1-184)”, in test [1], the binding entry is “binds”. Regarding “purified SCRIB PDZ1 domain (718-820) (from UniProt Q14160 718-820) (domain or fragment)”, the binding result in test [2], in test [3] and in test [4] was “no binding (tested: 50 μM)” throughout.
